Measurements reported in patent publication US20260258137A1.
Substitutions are numbered along the chain they refer to. Results are given in words; binding and its absence hold for the method and conditions named. Some results given as binding are weak or reduced against the parent protein; the word gives no strength. Each block holds one binder with its values, some of them ahead of it.

How the values were obtained:
[1] = target: Cynomolgus PD-L1 (Acrobiosystems, PD1-C52H4) (cynomolgus) (UniProt G7PSE7); test: ELISA, plate coated with cynomolgus PD-L1 protein, antibody at one concentration, goat anti-human HRP secondary antibody, OD450
[2] = target: cynomolgus PD-L1 on CHO-K1 cells (CHO-K1/cynoPD-L1, Nanjing Genscript, M00573) (cynomolgus) (UniProt G7PSE7); test: flow cytometry on CHO-K1/cynoPD-L1 cells
[3] = target: cynomolgus PD-L1 on CHO-K1 cells (CHO-K1/cynoPD-L1, Nanjing Genscript, M00573) (cynomolgus) (UniProt G7PSE7); test: flow cytometry on CHO-K1/cynoPD-L1 cells (legend of FIG. 2)

B1: PR000064 (antibody, human IgG1, kappa, N297A, V domains shown)
VH: EVQLVESGGGLVQPGGSLRLSCAASGFTFSSYWMSWVRQAPGKGLEWVANIKQDGSEKYYVDSVKGRFTISRDNAKNSLYLQMNSLRAEDTAVYYCARDRAVAGAFDIWGQGTMVTVSS
VL: DIQMTQSPSTLSTSVGDRVTITCRASQSISIWLAWYQQKPGKAPKLLIYKASSLESGVPSRFSGSGSGTEFTLTISSLQPDDFATYYCQQYYGYSRTFGQGTKVEIKR
binding [1]: binds

B2: PR000066 (antibody, human IgG1, kappa, N297A, V domains shown)
VH: B1 VH with F106S, D107A, I108F
VL: B1 VL with T13A, D17H, K45D, S56T, S65N, Y94S
binding [1]: binds

B4: PR000065 (antibody, human IgG1, kappa, N297A, V domains shown)
VH: B1 VH
VL: B1 VL with T13A, S30F, K45N, S56T, Y94S
binding [1]: binds

B6: PR000069 (antibody, human IgG1, kappa, N297A, V domains shown)
VH: B1 VH with Y94F, D107A
VL: B1 VL with T13A, S30Y, K39H, Y87F, K107R
binding [1]: binds

Next, values leading:

binding [2]: binds
binding [3]: binds
B3: PR000267 (antibody, human IgG1, kappa, N297A, V domains shown)
VH: B1 VH with D54E, V61G, D90E, F106S
VL: B1 VL with T13A, I31S, K45N, S56T

binding [1]: binds
B5: PR000072 (antibody, human IgG1, kappa, N297A, V domains shown)
VH: B1 VH with V61G, D90E, F106S
VL: B1 VL with T13A, I31S, K45N, S56T

binding [2]: binds
binding [3]: binds
B7: PR000266 (antibody, human IgG1, kappa, N297A, V domains shown)
VH: B1 VH with G55A
VL: B1 VL with T13A, I21V, S30Y, K45N, S56T, Y94S

binding [2]: binds
binding [3]: binds
B8: PR000268 (antibody, human IgG1, kappa, N297A, V domains shown)
VH: B1 VH with G55A, V61G, D90E, F106S
VL: B1 VL with T13A, I31S, K45N, S56T

binding [1]: binds
B9: PR000070 (antibody, human IgG1, kappa, N297A, V domains shown)
VH: B1 VH
VL: B1 VL with T13A, I21V, S30Y, K45N, S56T, Y94S
